Assay [1] has as its target QP1328 (人TSLP的FC融合) (human) (UniProt Q969D9). Description: ELISA, hybridoma supernatant on human TSLP. A general note: ELISA stands for enzyme-linked immunosorbent assay.
The target in assay [2] is QP313 (食蟹猴TSLP的FC融合) (cynomolgus monkey). Kind of assay: ELISA, hybridoma supernatant on cynomolgus TSLP.
Assay [3] has the same target. Kind of assay: ELISA, QP313 coated, anti-Fab HRP detection.
Assay [4] deals with QP1005 (human TSLP-his) (human) (UniProt Q969D9). Kind of assay: SPR (Biacore S200), antibody captured on Protein A chip, QP1005 in flow.
Assay [5] deals with QP313 (食蟹猴TSLP的FC融合) (cynomolgus monkey). Kind of assay: ELISA (legend of Figure 3).
In assay [6] the target is QP1328 (人TSLP的FC融合) (human) (UniProt Q969D9). Kind of assay: ELISA (legend of Figure 1).
Assay [7] has the same target. Kind of assay: ELISA, QP1328 coated, anti-Fab HRP detection.
Assay [8] has as its target QP1005 (human TSLP-his) (human) (UniProt Q969D9). Kind of assay: SPR (Biacore 8K), antibody captured on Protein A chip, QP1005 in flow.

The chains behind the UniProt entries cited, without tags or fusion partners. Residues count along the entry.
UniProt Q969D9, residues 29-159: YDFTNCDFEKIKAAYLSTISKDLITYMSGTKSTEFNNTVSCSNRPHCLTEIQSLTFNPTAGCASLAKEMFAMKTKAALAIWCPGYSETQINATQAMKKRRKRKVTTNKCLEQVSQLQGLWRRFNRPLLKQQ

Results on six molecules are retold here after CN115433275A.

Changes are numbered by the printed parent chain. These are yes or no findings as the source states them, for the method shown. Some entries that bind do so weakly or less than the wild type.

B1: mab177A12 (antibody, V domains shown)
VH: QVQLQQPGAELVKPGASVKMSCKASGYTFTSYWMHWVKQRPGQGLEWIGVIDPSDTYTTYNQKFKGKATLTVDTSSSTAYMQLSSLTSEDSAVYYCTRSLDGFFDYWGQGTTLTVSS
VL: DIQMTQSPASLSASVGETVSITCRASENIYSYLAWYQQKQGKSPQLLVYFAKTLAAGVPSRFSGSGSGTQFSLKINSLQPEDFGNYYCQHHYDTPWTFGGGTKLEIK
Regarding B1, the binding entry in assay [1] and in assay [2] was “binds” throughout.

B2: 嵌合抗体QP378379 (antibody, human IgG1, kappa, V domains shown)
VH: B1 VH
VL: DIQMTQSPASLSASVGETVSITCRASENIYSYLAWYQQKQGKSPQLLVYFAKTLAAGVPSRFSGSGSGTQFSLKINSLQPEDFGNYYCQHHYDTPWTFGGGTKLEIKR
For B2, the binding entry in assay [3], in assay [4], in assay [5], in assay [6] and in assay [7] was “binds” throughout.

B3: 人源化的抗TSLP抗体QP420422 (antibody, human IgG1, V domains shown)
VH: QVQLVQSGAEVKKPGASVKVSCKASGYTFTSYWMHWVKQAPGQGLEWIGVIDPSDTYTTYNQKFKGKATLTVDTSTSTAYMELSSLRSEDTAVYYCTRSLDGFFDYWGQGTLVTVSS
VL: DIQMTQSPSSLSASVGDRVTITCRASENIYSYLAWYQQKPGKSPKLLVYFAKTLAAGVPSRFSGSGSGTDFTLTISSLQPEDFATYYCQHHYDTPWTFGQGTKVEIK
As to B3, in assay [4], the binding result was “binds”.

B4: 抗TSLP抗体QP36110422 (antibody, IgG1, V domains shown)
VH: B3 VH with S54Y, T56A, Y57D, K63R
VL: B3 VL
Take B4: the binding result in assay [3], in assay [8] and in assay [7] was “binds” in each case.

B5: 抗TSLP抗体QP04203625 (antibody, IgG1, V domains shown)
VH: B3 VH
VL: B3 VL with K52R, T53R, L54P
Turning to B5, the binding entry in assay [3], in assay [8] and in assay [7] was “binds” throughout.

B6: 抗TSLP抗体QP36160422 (antibody, IgG1, V domains shown)
VH: B3 VH with S54Y, Y57D
VL: B3 VL
For the molecule B6, the binding entry in assay [3], in assay [8] and in assay [7] was “binds” in each case.
